The source of these data is publication doi:10.1101/2024.02.23.581834.

Sequences of proteins named here, by UniProt entry; tags and fusion partners are left off.
UniProt O95136: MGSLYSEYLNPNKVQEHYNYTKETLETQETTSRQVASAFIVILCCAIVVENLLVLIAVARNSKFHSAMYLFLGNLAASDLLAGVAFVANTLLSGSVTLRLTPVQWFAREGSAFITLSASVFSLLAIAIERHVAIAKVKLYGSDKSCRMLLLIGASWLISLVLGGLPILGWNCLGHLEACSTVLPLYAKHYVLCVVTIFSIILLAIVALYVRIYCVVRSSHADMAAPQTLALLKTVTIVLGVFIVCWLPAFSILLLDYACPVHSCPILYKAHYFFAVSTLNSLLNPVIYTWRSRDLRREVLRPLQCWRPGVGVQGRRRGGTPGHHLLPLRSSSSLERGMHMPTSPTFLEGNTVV
UniProt P32121: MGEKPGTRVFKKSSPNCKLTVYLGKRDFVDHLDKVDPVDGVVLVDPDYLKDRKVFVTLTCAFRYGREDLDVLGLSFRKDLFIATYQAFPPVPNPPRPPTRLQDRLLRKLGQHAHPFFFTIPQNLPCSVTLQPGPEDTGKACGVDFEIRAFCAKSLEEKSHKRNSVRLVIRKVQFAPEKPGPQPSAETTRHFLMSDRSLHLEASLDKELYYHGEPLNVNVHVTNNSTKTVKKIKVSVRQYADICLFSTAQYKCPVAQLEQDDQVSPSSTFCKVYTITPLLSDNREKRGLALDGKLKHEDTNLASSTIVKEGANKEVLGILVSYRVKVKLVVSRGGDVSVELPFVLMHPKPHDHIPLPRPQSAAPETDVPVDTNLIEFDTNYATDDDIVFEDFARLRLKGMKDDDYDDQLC

The assay concerns the target C-terminally LgBiT-fused human sphingosine-1-phosphate receptor 2 (S1PR2-LgBiT) (human) (UniProt O95136). Description: split reporter.

These are yes or no findings as the source states them, for the method shown. Binding seen in cells or lysates may run through a third protein. Some binding calls cover weakened binding; strength is not graded here.

“N-terminally SmBiT-fused human β-arrestin 2 (SmBiT-ARRB2) (from UniProt P32121 1-409)”: the binding entry is “binds”.
